Results published in PMC11724882, “Molecular basis for the enzymatic inactivity of class III glutaredoxin ROXY9 on standard glutathionylated substrates” (Nature Communications, 2025).
Results are given in words; binding and its absence hold for the method and conditions named. Where a sequence is shown, tags or fusion partners need not be part of it.

Biological target: strep-MBP-GRXC2 (Arabidopsis thaliana) (UniProt Q9FNE2)
Test: SEC; analytical gel filtration of the affinity-purified strep-MBP fusion proteins (purified in the presence of 5 mM GSH); strep-MBP-ROXY9 also after DTT treatment; both purified

- binding: no binding
B1: strep-MBP-GRXC2 (enzyme, UniProt Q9FNE2 1-111)
chain: MAMQKAKEIVNSESVVVFSKTYCPYCVRVKELLQQLGAKFKAVELDTESDGSQIQSGLAEWTGQRTVPNVFIGGNHIGGCDATSNLHKDGKLVPLLTEAGAIAGKTATTSA
